Measurements reported in PMC5563082.
Results are given in words; binding and its absence hold for the method and conditions named.

Biological target: human MDGA1 extracellular domain (MDGA1_(ECTO); Gln19-Lys925) (human) (UniProt Q8NFP4)
Assay: AUC; sedimentation velocity, human MDGA1_(ECTO) at 60 μM (6.31 g/L) in TBS-CT, 293 K, 40,000 rpm; both purified

B1: human MDGA1 extracellular domain (MDGA1_(ECTO); Gln19-Lys925) (domain or fragment, UniProt Q8NFP4-1 19-925)
chain: QGVYAPAQAQIVHAGQACVVKEDNISERVYTIREGDTLMLQCLVTGHPRPQVRWTKTAGSASDKFQETSVFNETLRIERIARTQGGRYYCKAENGVGVPAIKSIRVDVQYLDEPMLTVHQTVSDVRGNFYQEKTVFLRCTVNSNPPARFIWKRGSDTLSHSQDNGVDIYEPLYTQGETKVLKLKNLRPQDYASYTCQVSVRNVCGIPDKAITFRLTNTTAPPALKLSVNETLVVNPGENVTVQCLLTGGDPLPQLQWSHGPGPLPLGALAQGGTLSIPSVQARDSGYYNCTATNNVGNPAKKTVNLLVRSMKNATFQITPDVIKESENIQLGQDLKLSCHVDAVPQEKVTYQWFKNGKPARMSKRLLVTRNDPELPAVTSSLELIDLHFSDYGTYLCMASFPGAPVPDLSVEVNISSETVPPTISVPKGRAVVTVREGSPAELQCEVRGKPRPPVLWSRVDKEAALLPSGLPLEETPDGKLRLERVSRDMSGTYRCQTARYNGFNVRPREAQVQLNVQFPPEVEPSSQDVRQALGRPVLLRCSLLRGSPQRIASAVWRFKGQLLPPPPVVPAAAEAPDHAELRLDAVTRDSSGSYECSVSNDVGSAACLFQVSAKAYSPEFYFDTPNPTRSHKLSKNYSYVLQWTQREPDAVDPVLNYRLSIRQLNQHNAVVKAIPVRRVEKGQLLEYILTDLRVPHSYEVRLTPYTTFGAGDMASRIIHYTEPINSPNLSDNTCHFEDEKICGYTQDLTDNFDWTRQNALTQNPKRSPNTGPPTDISGTPEGYYMFIETSRPRELGDRARLVSPLYNASAKFYCVSFFYHMYGKHIGSLNLLVRSRNKGALDTHAWSLSGNKGNVWQQAHVPISPSGPFQIIFEGVRGPGYLGDIAIDDVTLKKGECPRKQTDPNK
  binding: no binding (tested: 60 μM)
